# Data published in publication PMC7819943, “Rice protein-binding microarrays: a tool to detect cis-acting elements near promoter regions in rice”.
# The other results are listed elsewhere or left out.
# Molecular target: T1, OsSMF1 (Oryza sativa, UniProt Q6ZLB0 1-436)
# T1 sequence: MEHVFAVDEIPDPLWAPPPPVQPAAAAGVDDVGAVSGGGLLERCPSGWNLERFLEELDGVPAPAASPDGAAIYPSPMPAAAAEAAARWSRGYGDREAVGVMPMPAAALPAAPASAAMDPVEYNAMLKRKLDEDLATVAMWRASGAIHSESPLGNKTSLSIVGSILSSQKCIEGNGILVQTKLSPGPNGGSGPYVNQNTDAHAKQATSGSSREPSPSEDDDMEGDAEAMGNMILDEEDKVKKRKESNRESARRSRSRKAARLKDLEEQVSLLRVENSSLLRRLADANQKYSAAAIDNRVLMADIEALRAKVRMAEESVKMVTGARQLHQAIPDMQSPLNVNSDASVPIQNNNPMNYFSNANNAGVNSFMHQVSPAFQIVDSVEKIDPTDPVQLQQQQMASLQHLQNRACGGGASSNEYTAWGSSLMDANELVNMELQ
# Experiment: protein-binding microarray (RPBM); PBS, 2% BSA, 51.3 ng/ul salmon testes DNA, 50 uM zinc acetate, 200 nM TF, 25 C, 1 h; high values mean tight binding
# Settings: protein: recombinant; tags: N-terminal polyhistidine and DsRed monomer fusion (pET32a); chain copies: 2; label: CyDye5-dUTP incorporated in the synthesized complementary strand; 3' TTTTT single-stranded linker to array surface; dsDNA, one strand shown
# How it was run: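 An Axon 4000B scanner gave the binding signal as per-feature fluorescence intensity in arbitrary units. This followed washing of a custom Agilent array that had been incubated for 1 h at 25 °C with 200 nM protein in PBS, 2% BSA, salmon testes DNA and 50 µM zinc acetate. The proteins were transcription factors fused at the N-terminus to polyhistidine and DsRed, expressed in E. coli BL21-CodonPlus and purified on Ni–NTA.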
row,Sequence,binding signal
1,GTATTTACAACATCATTGGCGACTGAATTGCACGATCTTTCGGAGTCACCTAGTGCAG,3760 fluorescence intensity (a.u.)
2,GGTCTTGCCTCCTACAAGTCCTCCTCCACGTTCAACTCAGCGGAGTCACCTAGTGCAG,3460 fluorescence intensity (a.u.)
3,ATTTCCGGTGGGACCGATGTGTCAGTCGCCACGTAGGACACGGAGTCACCTAGTGCAG,16400 fluorescence intensity (a.u.)
4,ACAACGTCGATACCTGGTGCTGCTGACGCCGTCGCCGACCCGGAGTCACCTAGTGCAG,6000 fluorescence intensity (a.u.)
5,AAATGCACTGCATTCGTTTCGGTGAGCTGAAAGAGCCTTACGGAGTCACCTAGTGCAG,3250 fluorescence intensity (a.u.)
6,AGATGGGAAATAAAGGGTGGTGACATGGCACACTGACATGCGGAGTCACCTAGTGCAG,10800 fluorescence intensity (a.u.)
7,CAAACCAAGAGATCGCGCTCCTCTGACGTAAAGTCAGAGACGGAGTCACCTAGTGCAG,3950 fluorescence intensity (a.u.)
8,TTTCGTCTGCCAACGCAAACGTGCGTGTGCACGAGTCGAGCGGAGTCACCTAGTGCAG,4320 fluorescence intensity (a.u.)
9,GGTAATGGGAGAGGCTGATGTGGCGTGAAATCTCTTGCGTCGGAGTCACCTAGTGCAG,16800 fluorescence intensity (a.u.)
10,TCATCACCTCTGACGGGCCTTTATTTAGGGGCTCGTCAGACGGAGTCACCTAGTGCAG,3220 fluorescence intensity (a.u.)
11,GCTGGCGTGGACGCTCCCGCGTCGCGACACGTCAGCCCGACGGAGTCACCTAGTGCAG,24100 fluorescence intensity (a.u.)
12,GGTTGACAGGTAGGGCCCACGATGACTCAGCAGCCACGTACGGAGTCACCTAGTGCAG,19500 fluorescence intensity (a.u.)
13,AGGAACCCATTGAGCTACACATGGGCTGACTCAATTGCTACGGAGTCACCTAGTGCAG,3750 fluorescence intensity (a.u.)
14,GCCGGGCCGTGCCGCCCGTTTGGACACCTATACCTCTGGTCGGAGTCACCTAGTGCAG,3560 fluorescence intensity (a.u.)
15,AGAGTTGTGGACTTGTGGTTACGTGGGAGCAAATCTAGTTCGGAGTCACCTAGTGCAG,4000 fluorescence intensity (a.u.)
16,TGTGCTGAGCTGTCATTTAGCCCGATCTCTCCACGTCAGACGGAGTCACCTAGTGCAG,29500 fluorescence intensity (a.u.)
17,CGTCGTCTGCTGATTGGCTGATCTCCACGTCAGCAGAAAGCGGAGTCACCTAGTGCAG,29400 fluorescence intensity (a.u.)
18,TATCCCAATTGATTTGTAAAGGTGTTCATTTACAACACACCGGAGTCACCTAGTGCAG,3330 fluorescence intensity (a.u.)
19,ATTAGTGTTCCCAACCCATTCCAGCTAACACAGCCTAATGCGGAGTCACCTAGTGCAG,3520 fluorescence intensity (a.u.)
20,ATTTGTACATGGCCTTATGAAGTTATCCAGTCACTACACTCGGAGTCACCTAGTGCAG,3940 fluorescence intensity (a.u.)
21,GGTTACCTCTGACAATGACACCCCAAATCGTCATTATCCTCGGAGTCACCTAGTGCAG,3830 fluorescence intensity (a.u.)

row,Sequence,binding signal
1,CCCGCGTCGCATTCAACGCCACGCACACCACTCCACTCCACGGAGTCACCTAGTGCAG,3470 fluorescence intensity (a.u.)
2,GCCGCCACCCACCCACTCGACCGTTGCCACCGCTGCTTCCCGGAGTCACCTAGTGCAG,3390 fluorescence intensity (a.u.)
3,TATTGGAAAACTATGACAAGTCACAACTATAACGGCGAACCGGAGTCACCTAGTGCAG,5210 fluorescence intensity (a.u.)
4,TTGGTAAGCAATCTAATCCAGTCATGATCCTCGTAATTACCGGAGTCACCTAGTGCAG,4940 fluorescence intensity (a.u.)
5,CATAACCATGACACGACATGATTATTTCGAGCAGAGGCTGCGGAGTCACCTAGTGCAG,6340 fluorescence intensity (a.u.)
6,CACATGAAATTTCCTTGTTCCCTTGTGATCGTCTGATCTCCGGAGTCACCTAGTGCAG,21100 fluorescence intensity (a.u.)
7,CCGGTCGTCCGTCAGCATCCTCTCTTCCGTTGGTCATCCTCGGAGTCACCTAGTGCAG,4550 fluorescence intensity (a.u.)
8,AATATAATTATTTATACTTCATAGATTTCATGTTCTTCTGCGGAGTCACCTAGTGCAG,3150 fluorescence intensity (a.u.)
9,ATAACGAAAGTGCAAACCTGGCACTATTCTTTAGCACCGTCGGAGTCACCTAGTGCAG,8730 fluorescence intensity (a.u.)
10,ACCTCCAGCGCAACGTACGTACGTGTACCAGCGCGCCGCCCGGAGTCACCTAGTGCAG,4180 fluorescence intensity (a.u.)
11,GACGCTCGGGGCTTGGTCGCCGTCATCACAGGTACGGATACGGAGTCACCTAGTGCAG,3930 fluorescence intensity (a.u.)
12,GAAATGCCACAGCTCGCCGATGAGCTCCTCCGTGACCGTCCGGAGTCACCTAGTGCAG,26000 fluorescence intensity (a.u.)
13,AAGTCCTCCCACAAGTCAACCAACCAAAACCACGTCCAAACGGAGTCACCTAGTGCAG,3420 fluorescence intensity (a.u.)
14,AACGAGAATTCATGGAATCCAAGAAAAGAGACACGTGTTGCGGAGTCACCTAGTGCAG,11500 fluorescence intensity (a.u.)
15,GCGGCCACGCAGGATGACACCGTCGATGTCGAAGGCGATGCGGAGTCACCTAGTGCAG,3830 fluorescence intensity (a.u.)
16,CCGTCCCTCTCACTCTCCCGTGGACCGTGCGCGCTCTAGCCGGAGTCACCTAGTGCAG,3770 fluorescence intensity (a.u.)
17,GTAACTGCGACGCGCAAATCCCCGGTGCGATGACTCCTCCCGGAGTCACCTAGTGCAG,3200 fluorescence intensity (a.u.)
18,AATTGAAATCCTTCTACTTATTCCTCCAAATGCAACCTTTCGGAGTCACCTAGTGCAG,32900 fluorescence intensity (a.u.)
19,TTAACCTAGTATCGGATATGACAATCCTAGTACTACATATCGGAGTCACCTAGTGCAG,4460 fluorescence intensity (a.u.)
20,TCCCGCGCCGTCGCGCGCCAGCTGTCTCCCACTCGGGTGCCGGAGTCACCTAGTGCAG,3480 fluorescence intensity (a.u.)
21,TCACGTAGAACGTAGAAAAGGTAACACCGCCACGTAGTCACGGAGTCACCTAGTGCAG,9880 fluorescence intensity (a.u.)

# Rewritten with bars between the fields: entries from further up
row | Sequence | binding signal
13 | AGGAACCCATTGAGCTACACATGGGCTGACTCAATTGCTACGGAGTCACCTAGTGCAG | 3750 fluorescence intensity (a.u.)
14 | GCCGGGCCGTGCCGCCCGTTTGGACACCTATACCTCTGGTCGGAGTCACCTAGTGCAG | 3560 fluorescence intensity (a.u.)
15 | AGAGTTGTGGACTTGTGGTTACGTGGGAGCAAATCTAGTTCGGAGTCACCTAGTGCAG | 4000 fluorescence intensity (a.u.)
16 | TGTGCTGAGCTGTCATTTAGCCCGATCTCTCCACGTCAGACGGAGTCACCTAGTGCAG | 29500 fluorescence intensity (a.u.)
17 | CGTCGTCTGCTGATTGGCTGATCTCCACGTCAGCAGAAAGCGGAGTCACCTAGTGCAG | 29400 fluorescence intensity (a.u.)
18 | TATCCCAATTGATTTGTAAAGGTGTTCATTTACAACACACCGGAGTCACCTAGTGCAG | 3330 fluorescence intensity (a.u.)
19 | ATTAGTGTTCCCAACCCATTCCAGCTAACACAGCCTAATGCGGAGTCACCTAGTGCAG | 3520 fluorescence intensity (a.u.)
20 | ATTTGTACATGGCCTTATGAAGTTATCCAGTCACTACACTCGGAGTCACCTAGTGCAG | 3940 fluorescence intensity (a.u.)
21 | GGTTACCTCTGACAATGACACCCCAAATCGTCATTATCCTCGGAGTCACCTAGTGCAG | 3830 fluorescence intensity (a.u.)
1 | CCCGCGTCGCATTCAACGCCACGCACACCACTCCACTCCACGGAGTCACCTAGTGCAG | 3470 fluorescence intensity (a.u.)
2 | GCCGCCACCCACCCACTCGACCGTTGCCACCGCTGCTTCCCGGAGTCACCTAGTGCAG | 3390 fluorescence intensity (a.u.)
